Measured data: PubChem BioAssay AID686943 (Drosophila RNAi Screening Center, 2013)
In all, the deposit lists about 23,000 reagents; this is a random part of those that have a named target and a result. 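Extra replicates exist only for a retested subset of genes; insulin dose and duration not given; both raised and lowered dpERK matter.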 Not all columns of the deposit are shown. The record does not give: the amount of reagent, the time to read-out.

Aim: 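Knockdowns that increase or decrease active ERK after insulin receptor stimulation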 (primary screen)
Cell system: Drosophila S2R+ haemocyte-like cells expressing YFP-tagged ERK (Rolled)
Knock-down reagent: long dsRNA against Drosophila genes
Treatment: insulin stimulation versus unstimulated cells; dose and duration not given
Detection: 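Antibody staining for doubly phosphorylated ERK divided by ERK-YFP signal, as plate z-scores, in insulin-treated and untreated cells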
Scale: replicate 1, z-score of dpERK with insulin and replicate 2, z-score of dpERK with insulin: higher = more active ERK per ERK-YFP after insulin

With knock-down of sima [SID104196847], the record shows replicate 1, z-score of dpERK with insulin 0.59; replicate 2, z-score of dpERK with insulin -2.35.
For CG16700 [SID104199547], the values are replicate 1, z-score of dpERK with insulin 0.12; replicate 2, z-score of dpERK with insulin 0.21.
With knock-down of Eaf6 [SID104189693], the record shows replicate 1, z-score of dpERK with insulin 0.56; replicate 2, z-score of dpERK with insulin 0.69.
Knock-down of Actn [SID104197516] came out at: replicate 1, z-score of dpERK with insulin -0.07; replicate 2, z-score of dpERK with insulin 0.55.
With knock-down of Ucp4C [SID104182924], the screen gave replicate 1, z-score of dpERK with insulin -0.26; replicate 2, z-score of dpERK with insulin 0.11.
Against trbd [SID104196286], the values are replicate 1, z-score of dpERK with insulin -1.32; replicate 2, z-score of dpERK with insulin -0.95.
Knock-down of Orc2 [SID104196568] resulted in: replicate 1, z-score of dpERK with insulin 0.96; replicate 2, z-score of dpERK with insulin 0.78.

Taken from above:
Value of CG16700 [SID104199547] in “replicate 2, z-score of dpERK with insulin”: 0.21
Under “replicate 2, z-score of dpERK with insulin”, Eaf6 [SID104189693] reads 0.69
trbd [SID104196286], replicate 2, z-score of dpERK with insulin: -0.95

Next entries:
With knock-down of kipf [SID104195238], the record shows replicate 1, z-score of dpERK with insulin 0.57; replicate 2, z-score of dpERK with insulin -0.6.
Against kipf [SID104202230] the deposit lists replicate 1, z-score of dpERK with insulin 1.01; replicate 2, z-score of dpERK with insulin 0.16.
CG5543 [SID104184303] gave replicate 1, z-score of dpERK with insulin 0.94; replicate 2, z-score of dpERK with insulin 0.3.
With knock-down of CG13950 [SID104180160] the results were replicate 1, z-score of dpERK with insulin -0.24; replicate 2, z-score of dpERK with insulin -1.66.
Against Jhbp12 [SID104194413] the deposit lists replicate 1, z-score of dpERK with insulin -0.37; replicate 2, z-score of dpERK with insulin 0.49.
CG4766 [SID104197528] gave replicate 1, z-score of dpERK with insulin 1.6; replicate 2, z-score of dpERK with insulin 0.33.
With knock-down of CG11961 [SID104185891], the screen gave replicate 1, z-score of dpERK with insulin 0.44; replicate 2, z-score of dpERK with insulin 0.85.
After knock-down of CG8673 [SID104182897] the results were replicate 1, z-score of dpERK with insulin 0.11; replicate 2, z-score of dpERK with insulin 0.08.
Uba2 [SID104191103] scored replicate 1, z-score of dpERK with insulin 0.09; replicate 2, z-score of dpERK with insulin -0.08.
CG3609 [SID104180412] showed replicate 1, z-score of dpERK with insulin 0.05; replicate 2, z-score of dpERK with insulin -0.41.
For CG42710 [SID104180826] the deposit lists replicate 1, z-score of dpERK with insulin -0.4; replicate 2, z-score of dpERK with insulin -0.4.
Depletion of slo [SID104193477] came out at: replicate 1, z-score of dpERK with insulin 0.65; replicate 2, z-score of dpERK with insulin 0.62.
After knock-down of slo [SID104196849], the screen gave replicate 1, z-score of dpERK with insulin -0.52; replicate 2, z-score of dpERK with insulin -0.42.
slo [SID104201523] showed replicate 1, z-score of dpERK with insulin 0.36; replicate 2, z-score of dpERK with insulin 1.12.
